PubChem BioAssay AID1259425 | University of Nebraska Medical Center – 2018
Assay: 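Find knockdowns that reproduce the gene expression pattern seen when KSR1 is lost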 (primary screen). Cells: HCT116 human colon cancer cells. Knock-down reagent: siRNA pool against human genes, 50 nM siRNA. Measurement: 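After 50 nM siRNA pool, branched-DNA assay measures six marker transcripts per well, minus blank, normalised to the geometric mean of two housekeeping transcripts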. Reading the numbers: BNIP3L mRNA: higher = more BNIP3L transcript after knockdown; NDRG1 mRNA: higher = more NDRG1 transcript after knockdown; BNIP3 mRNA: higher = more BNIP3 transcript after knockdown; ALDOC mRNA: higher = more ALDOC transcript after knockdown; ACSL5 mRNA: higher = more ACSL5 transcript after knockdown.
The deposit covers about 14,000 reagents; below is a random part of them. Not stated in the record: the time to read-out.

| target gene | BNIP3L mRNA, set 1 | NDRG1 mRNA, set 1 | BNIP3 mRNA, set 1 | ALDOC mRNA, set 1 | ACSL5 mRNA, set 1 |
| --- | --- | --- | --- | --- | --- |
| KIFBP (kinesin family binding protein) | 0.192 | 0.23 | 0.394 | 0.0455 | 0.204 |
| ZBTB40 (zinc finger and BTB domain containing 40) | 0.092 | 0.136 | 0.406 | 0.0155 | 0.227 |
| PPP1R13L (protein phosphatase 1 regulatory subunit 13 like) | 0.173 | 0.128 | 0.172 | 0.0218 | 0.283 |
| CISH (cytokine inducible SH2 containing protein) | 0.114 | 0.103 | 0.24 | 0.0172 | 0.122 |
| TTC33 (tetratricopeptide repeat domain 33) | 0.0615 | 0.193 | 0.529 | 0.0268 | 0.144 |
| PKMYT1 (protein kinase, membrane associated tyrosine/threonine 1) | 0.105 | 0.102 | 0.516 | 0.0177 | 0.159 |
| SLC45A1 | 0.0677 | 0.214 | 0.376 | 0.0296 | 0.229 |
| GALNT4 (polypeptide N-acetylgalactosaminyltransferase 4) | 0.0824 | 0.239 | 0.345 | 0.0234 | 0.121 |
| POMT2 (protein O-mannosyltransferase 2) | 0.0602 | 0.387 | 0.218 | 0.00537 | 0.324 |
| CD69 (CD69 molecule) | 0.0626 | 0.154 | 0.226 | 0.0135 | 0.151 |
| ANAPC15 (anaphase promoting complex subunit 15) | 0.0722 | 0.0999 | 0.437 | 0.0137 | 0.152 |
| TNNC2 (troponin C2, fast skeletal type) | 0.116 | 0.163 | 0.223 | 0.015 | 0.122 |
| CDCA7 (cell division cycle associated 7) | 0.15 | 0.266 | 0.153 | 0.0306 | 0.211 |
| USP40 (ubiquitin specific peptidase 40) | 0.239 | 0.228 | 0.392 | 0.0873 | 0.14 |
| CALCOCO1 (calcium binding and coiled-coil domain 1) | -0.0996 | 0.551 | 0.301 | 0.0545 | 0.254 |
| SPTSSB (serine palmitoyltransferase small subunit B) | 0.0616 | 0.337 | 0.33 | 0.0248 | 0.164 |
| AEBP1 (AE binding protein 1) | 0.0834 | 0.285 | 0.249 | 0.0298 | 0.168 |
| HLA-DQB2 (major histocompatibility complex, class II, DQ beta 2) | 0.082 | 0.0651 | 0.188 | 0.0337 | 0.104 |
| GPANK1 (G-patch domain and ankyrin repeats 1) | 0.0342 | 0.12 | 0.17 | 0.0312 | 0.0734 |
| LDAH (lipid droplet associated hydrolase) | 0.0721 | 0.138 | 0.391 | 0.0278 | 0.154 |
| SMC5 (structural maintenance of chromosomes 5) | 0.114 | 0.213 | 0.37 | 0.0609 | 0.315 |
| CXCR3 (C-X-C motif chemokine receptor 3) | 0.154 | 0.392 | 0.276 | 0.0566 | 0.105 |
| ATP7B (ATPase copper transporting beta) | 0.127 | 0.545 | 0.285 | 0.0228 | 0.394 |
| HABP2 (hyaluronan binding protein 2) | 0.15 | 0.195 | 0.416 | 0.0321 | 0.134 |
| RBP3 (retinol binding protein 3) | 0.0786 | 0.356 | 0.149 | 0.0458 | 0.154 |
| ZNF586 (zinc finger protein 586) | 0.168 | 0.82 | 0.22 | 0.0199 | 0.251 |
| IGHG3 (immunoglobulin heavy constant gamma 3 (G3m marker)) | 0.0408 | 0.202 | 0.155 | 0.0146 | 0.112 |
| SULT2A1 (sulfotransferase family 2A member 1) | 0.0935 | 0.138 | 0.303 | 0.019 | 0.225 |
| FRA10AC1 (FRA10A associated CGG repeat 1) | 0.0765 | 0.279 | 0.312 | 0.0456 | 0.147 |
| KCNIP4 (potassium voltage-gated channel interacting protein 4) | 0.0929 | 0.115 | 0.284 | 0.0151 | 0.171 |
| ZNF566 (zinc finger protein 566) | 0.144 | 0.0933 | 0.196 | 0.0383 | 0.118 |
| NSFL1C (NSFL1 cofactor) | 0.179 | 0.322 | 0.291 | 0.0276 | 0.227 |
| PKP2 (plakophilin 2) | 0.0615 | 0.114 | 0.321 | 0.0413 | 0.214 |
| ARMC8 (armadillo repeat containing 8) | 0.0738 | 0.247 | 0.221 | 0.0268 | 0.159 |
